Experimental data: PMC8267177 (Frontiers in Chemistry, 2021)

Columns and labels:
[1] = general procedure: Fmoc solid-phase peptide synthesis; 2-chlorotrityl chloride resin (Carbolution, 1.60 mmol/g, 100–200 mesh); DIC/hydroxybenzotriazole (amino acids); bromoacetic acid/DIC (submonomer); HATU; details: for final HPLC purity: 218 nm; for isolated yield: on resin loading
[2] = whole synthesis, scale of the general procedure 200 µmol
[3] = whole synthesis, over 11 steps, scale of the general procedure 200 µmol
[4] = conjugation step, on macrocycle

## PEPTIDE1{F.[N1ph].[N1ph].[N1ph].[N4am].F}$PEPTIDE1,PEPTIDE1,1:R1-6:R2$$$V2.0
Peptide synthesis; whole synthesis
  final HPLC purity: 87%
  isolated yield: 15%

## PEPTIDE1{F.[N1ph].[N1ph].[N4am]}$PEPTIDE1,PEPTIDE1,1:R1-4:R2$$$V2.0
[1]; whole synthesis
  isolated mass: 30.8 mg
[1]; [2]
  final HPLC purity: >99%
[1]; [3]
  isolated yield: 16%

## PEPTIDE1{F.[N1ph].[N1ph].[N4am]}|CHEM1{[Rhod]}$PEPTIDE1,PEPTIDE1,1:R1-4:R2|PEPTIDE1,CHEM1,4:R3-1:R2$$$V2.0
[1]; conjugation step
  final HPLC purity: >99%
[1]; [4]
  conjugation yield: 23%

## PEPTIDE1{F.[N1phpCl].[N1phpCl].[N1phpCl].[N4am].F}$PEPTIDE1,PEPTIDE1,1:R1-6:R2$$$V2.0
Peptide synthesis; whole synthesis
  final HPLC purity: 83%
  isolated yield: 12%

## PEPTIDE1{F.[N1phpCl].[N4am].[N1ph]}$PEPTIDE1,PEPTIDE1,1:R1-4:R2$$$V2.0
[1]; whole synthesis
  isolated mass: 31.7 mg
[1]; [2]
  final HPLC purity: >99%
[1]; [3]
  isolated yield: 26%

## PEPTIDE1{F.[N1phpCl].[N4am].[N1ph]}|CHEM1{[Rhod]}$PEPTIDE1,PEPTIDE1,1:R1-4:R2|PEPTIDE1,CHEM1,3:R3-1:R2$$$V2.0
[1]; conjugation step
  final HPLC purity: 89%
[1]; [4]
  conjugation yield: 22%

## PEPTIDE1{F.[N3m].[N1ph].[N4am]}$PEPTIDE1,PEPTIDE1,1:R1-4:R2$$$V2.0
[1]; whole synthesis
  isolated mass: 10.0 mg
[1]; [2]
  final HPLC purity: 97%
[1]; [3]
  isolated yield: 9.6%

## PEPTIDE1{F.[N3m].[N1ph].[N4am]}|CHEM1{[Rhod]}$PEPTIDE1,PEPTIDE1,1:R1-4:R2|PEPTIDE1,CHEM1,4:R3-1:R2$$$V2.0
[1]; conjugation step
  final HPLC purity: >99%
[1]; [4]
  conjugation yield: 17%

## PEPTIDE1{F.[N3m].[N3m].[N1ph].[N4am].F}$PEPTIDE1,PEPTIDE1,1:R1-6:R2$$$V2.0
[1]; whole synthesis
  isolated mass: 15.3 mg
[1]; [2]
  final HPLC purity: >99%
[1]; whole synthesis, over 15 steps, scale of the general procedure 200 µmol
  isolated yield: 9.6%

## PEPTIDE1{F.[N4am].[N1ph].Y}$PEPTIDE1,PEPTIDE1,1:R1-4:R2$$$V2.0
[1]; whole synthesis
  isolated mass: 16.4 mg
[1]; [2]
  final HPLC purity: 94%
[1]; [3]
  isolated yield: 28%

## PEPTIDE1{W.[N1ph].[N1ph].K}$PEPTIDE1,PEPTIDE1,1:R1-4:R2$$$V2.0
[1]; whole synthesis
  isolated mass: 17.3 mg
[1]; [3]
  isolated yield: 17%

## PEPTIDE1{W.[N1ph].[N1ph].K}|CHEM1{[Rhod]}$PEPTIDE1,PEPTIDE1,1:R1-4:R2|PEPTIDE1,CHEM1,4:R3-1:R2$$$V2.0
[1]; conjugation step
  final HPLC purity: >99%
[1]; [4]
  conjugation yield: 38%

## PEPTIDE1{W.[N1phpCl].[N1phpCl].K}$PEPTIDE1,PEPTIDE1,1:R1-4:R2$$$V2.0
[1]; whole synthesis
  isolated mass: 7.50 mg
[1]; [2]
  final HPLC purity: 88%
[1]; [3]
  isolated yield: 8.5%

## PEPTIDE1{W.[N1phpCl].[N1phpCl].K}|CHEM1{[Rhod]}$PEPTIDE1,PEPTIDE1,1:R1-4:R2|PEPTIDE1,CHEM1,4:R3-1:R2$$$V2.0
[1]; conjugation step
  final HPLC purity: 91%
[1]; [4]
  conjugation yield: 21%

## PEPTIDE1{Y.[N3m].[N3m].K}$PEPTIDE1,PEPTIDE1,1:R1-4:R2$$$V2.0
[1]; whole synthesis
  isolated mass: 14.8 mg
[1]; [2]
  final HPLC purity: 91%
[1]; [3]
  isolated yield: 13%

## PEPTIDE1{Y.[N3m].[N3m].K}|CHEM1{[Rhod]}$PEPTIDE1,PEPTIDE1,1:R1-4:R2|PEPTIDE1,CHEM1,4:R3-1:R2$$$V2.0
[1]; conjugation step
  conjugation yield: 6%
  final HPLC purity: >99%
[1]; [4]
  conjugation yield: 11%

## cyclo-(l-Phe-N1ph-N1ph-N1ph-N4am(Rhod)-l-Phe)
Peptide synthesis; conjugation step
  final HPLC purity: >99%
Peptide synthesis; conjugation step, T1 r10
  conjugation yield: 52%
Peptide synthesis; conjugation step, run 1
  conjugation yield: 91%

## cyclo-(l-Phe-N1ph^pCl-N1ph^pCl-N1ph^pCl-N4am(Rhod)-l-Phe)
Peptide synthesis; conjugation step
  final HPLC purity: >99%
Peptide synthesis; conjugation step, T1 r11
  conjugation yield: 62%
Peptide synthesis; conjugation step, run 1
  conjugation yield: 61%

## cyclo-(l-Phe-N3m-N3m-N1ph-N4am(Rhod)-l-Phe)
Peptide synthesis; conjugation step
  conjugation yield: 14%
  final HPLC purity: >99%

## cyclo-(l-Phe-N4am(Rhod)-N1ph-l-Tyr)
[1]; conjugation step
  final HPLC purity: 93%
[1]; [4]
  conjugation yield: 7.0%

Some peptides are written in HELM: one residue between dots, names in brackets for other building blocks, links after the first $.
